Results taken from PMC6974622, “DeepMalaria: Artificial Intelligence Driven Discovery of Potent Antiplasmodials” (Frontiers in Pharmacology, 2020).

tested on: human hepatoma cell line HepG2; assay: MTS based cytotoxicity assay (counter-screen for selectivity); type: cell-based; details: selectivity index, HepG2 versus Pf
Experimental: Selectivity was determined by counter-screening against human hepatoma cell line HepG2 in a MTS (3-(4,5-Dimethylthiazol-2-yl)-5-(3-carboxymethoxyphenyl)-2-(4-sulfophenyl)-2H-tetrazolium) based cytotoxicity assay (CellTiter 96® Aqueous One, Promega, Madison, WI) ([Riss et al., 2004]). Briefly, microtiter plates were seeded with 1,500 cells per well in a 384 well plate and incubated for 24 h at 37°C in 5% CO2/95% air atmosphere. The next day, compounds were added at seven different serially diluted concentrations starting at 25 µM d incubated for additional 48 h at stated conditions. MTS solution was next added to each well, incubated for additional 3 h at 37°C, and absorbance was read at 490 nm using BioTek Synergy neo 2 plate reader. Untreated cells served as control. Curve fitting was performed using GraphPad Prism and EC50 value was determined.

SMILES	Toxicity SI
Cc1cc(C)n(Cc2c(C(=O)N3CCC4(CCCCOC[C@@H]5CCCN5C(=O)c5cccc(c5)OC4)CC3)noc2C)n1 [DC-5921, CC1=NN(CC2=C(C)ON=C2C(=O)N2CCC3(CC2)CCCCOC[C@@H]2CCCN2C(=O)C2=CC(OC3)=CC=C2)C(C)=C1]	>40
CCc1nc2ccccc2c(C(=O)N2CCC3(CCCCOCCNC(=O)c4ccccc4OC3)CC2)c1C [DC-5931, CCC1=NC2=C(C=CC=C2)C(C(=O)N2CCC3(CC2)CCCCOCCNC(=O)C2=C(OC3)C=CC=C2)=C1C]	>40
CC(C)C[C@@H](N)C(=O)N1CCC2(CCCCCc3ccccc3OCCN(C)C2=O)CC1 [DC-9236, CC(C)C[C@@H](N)C(=O)N1CCC2(CC1)CCCCCC1=C(OCCN(C)C2=O)C=CC=C1]	15.9
CCC1C2=NC(Cc3ccccc3)=C(O2)N(Cc2ccccc2)Cc2cn(nn2)CCCCN1Cc1ccccc1OCCN(C)C (centres unmarked) [DC-9237, CCC1N(CC2=CC=CC=C2OCCN(C)C)CCCCN2C=C(CN(CC3=CC=CC=C3)C3=C(CC4=CC=CC=C4)N=C1O3)N=N2]	35.3
CN1CCOc2ccccc2CCCCCC2(CCN(C(=O)[C@H](N)c3ccccc3)CC2)C1=O [DC-9239, CN1CCOC2=C(CCCCCC3(CCN(CC3)C(=O)[C@H](N)C3=CC=CC=C3)C1=O)C=CC=C2]	25
